Experimental data from publication PMC11408250.
No constants are given. Whether binding was seen depends on the method and setting. In cells and extracts the contact can be indirect. A yes stands for co-enrichment or nearness to the bait. Other partners may have been found. Where a sequence is shown, tags or fusion partners need not be part of it.

T1: PCDH19-HA-FLAG (Protocadherin 19, endogenous in Pcdh19-HA-FLAG mice) (mouse (endogenous in mouse brain)) (UniProt Q80TF3)
T1 sequence: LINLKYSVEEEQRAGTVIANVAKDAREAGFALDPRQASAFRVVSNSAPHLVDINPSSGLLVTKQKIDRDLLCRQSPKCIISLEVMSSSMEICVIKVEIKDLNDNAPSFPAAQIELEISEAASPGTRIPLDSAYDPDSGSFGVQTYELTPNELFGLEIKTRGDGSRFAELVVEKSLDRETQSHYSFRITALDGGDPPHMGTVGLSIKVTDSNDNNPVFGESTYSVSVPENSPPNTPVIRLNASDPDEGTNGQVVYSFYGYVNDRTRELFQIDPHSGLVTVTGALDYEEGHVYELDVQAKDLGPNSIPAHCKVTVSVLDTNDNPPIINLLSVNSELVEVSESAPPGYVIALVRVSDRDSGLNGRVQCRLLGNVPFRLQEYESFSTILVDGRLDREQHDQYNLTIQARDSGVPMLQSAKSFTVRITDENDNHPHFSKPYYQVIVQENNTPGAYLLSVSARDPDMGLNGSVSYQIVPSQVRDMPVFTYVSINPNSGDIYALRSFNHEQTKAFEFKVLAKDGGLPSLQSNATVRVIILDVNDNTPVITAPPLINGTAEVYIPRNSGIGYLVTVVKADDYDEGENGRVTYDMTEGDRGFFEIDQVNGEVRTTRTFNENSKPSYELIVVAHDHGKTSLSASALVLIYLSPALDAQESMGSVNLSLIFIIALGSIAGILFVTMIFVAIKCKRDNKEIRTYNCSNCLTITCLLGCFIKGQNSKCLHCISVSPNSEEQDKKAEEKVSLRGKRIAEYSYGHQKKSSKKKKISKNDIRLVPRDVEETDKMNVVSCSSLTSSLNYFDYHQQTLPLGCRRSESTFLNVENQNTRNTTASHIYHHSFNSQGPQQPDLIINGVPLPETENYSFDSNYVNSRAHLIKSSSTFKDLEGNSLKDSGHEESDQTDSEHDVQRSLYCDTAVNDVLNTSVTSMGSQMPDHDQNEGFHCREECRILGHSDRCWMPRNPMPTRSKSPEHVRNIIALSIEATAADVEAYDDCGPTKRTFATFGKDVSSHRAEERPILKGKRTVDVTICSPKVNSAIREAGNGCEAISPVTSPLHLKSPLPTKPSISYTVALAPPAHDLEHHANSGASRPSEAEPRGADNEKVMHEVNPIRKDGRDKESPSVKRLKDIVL


Tests used:
[1] = target: T1, PCDH19-HA-FLAG (Protocadherin 19, endogenous in Pcdh19-HA-FLAG mice) (mouse (endogenous in mouse brain)); assay: affinity purification with mass spectrometry; Experiment 1: PCDH19-HA-FLAG precipitated with anti-FLAG M2 affinity gel from E18.5 mouse cortex lysate, control untagged mice; IP Buffer (50 mM Tris-HCl pH 7.5, 150 mM NaCl, 0.2% Triton-X-100, 2 mM EDTA, 0.01% SDS), overnight 4 °C; LC-MS/MS
[2] = target: T1, PCDH19-HA-FLAG (Protocadherin 19, endogenous in Pcdh19-HA-FLAG mice) (mouse (endogenous in mouse brain)); assay: affinity purification with mass spectrometry; Experiment 2, postnatal: PCDH19-HA-FLAG precipitated with anti-FLAG M2 affinity gel from P6-7 mouse cortex and hippocampus lysate, control mouse IgG affinity gel; IP Buffer, overnight 4 °C; LC-MS/MS
[3] = target: T1, PCDH19-HA-FLAG (Protocadherin 19, endogenous in Pcdh19-HA-FLAG mice) (mouse (endogenous in mouse brain)); assay: affinity purification with mass spectrometry; Experiment 2, embryonic: PCDH19-HA-FLAG precipitated with anti-FLAG M2 affinity gel from E17.5-18.5 mouse cortex and hippocampus lysate, control mouse IgG affinity gel; IP Buffer, overnight 4 °C; LC-MS/MS

binding [1]	binding [2]	binding [3]	Binder
binds	–	–	SH3 And Multiple Ankyrin Repeat Domains 2 (protein, UniProt Q80Z38 1-1476) MKSLLNAFTKKEVPFREAPAYSNRRRRPPNTLAAPRVLLRSNSDNNLNAGAPEWAVCSAATSHRSLSPQLLQQTPSKPDGATKSLGSYTPGPRSRSPSLNRLGGTAEDGKRTQPHWHVGSPFTPGANKDSLSTFEYPGPRRKLYSAVPGRLFVAVKPYQPQVDGEIPLHRGDRVKVLSIGEGGFWEGSARGHIGWFPAECVEEVQCKPRDSQAETRADRSKKLFRHYTVGSYDSFDAASDCIIEDKTVVLQKKDNEGFGFVLRGAKADTPIEEFTPTPAFPALQYLESVDEGGVAWQAGLRTGDFLIEVNNENVVKVGHRQVVNMIRQGGNHLILKVVTVTRNLDPDDTARKKAPPPPKRAPTTALTLRSKSMTAELEELGLSLVDKASVRKKKDKPEEIVPASKPSRTAENVAIESRVATIKQRPTSRCFPAASDVNSVYERQGIAVMTPTVPGSPKGPFLGLPRGTMRRQKSIDSRIFLSGITEEERQFLAPPMLKFTRSLSMPDTSEDIPPPPQSVPPSPPPPSPTTYNCPRSPTPRVYGTIKPAFNQNPVVAKVPPATRSDTVATMMREKGMFYRRELDRFSLDSEDVYSRSPAPQAAFRTKRGQMPENPYSEVGKIASKAVYVPAKPARRKGVLVKQSNVEDSPEKTCSIPIPTIIVKEPSTSSSGKSSQGSSMEIDPQATEPGQLRPDDSLTVSSPFAAAIAGAVRDREKRLEARRNSPAFLSTDLGDEDVGLGPPAPRMQASKFPEEGGFGDEDETEQPLLPTPGAAPRELENHFLGGGEAGAQGEAGGPLSSTSKAKGPESGPAAPLKSSSPAGPENYVHPLTGRLLDPSSPLALALSARDRAMQESQQGHKGEAPKADLNKPLYIDTKMRPSVESGFPPVTRQNTRGPLRRQETENKYETDLGKDRRADDKKNMLINIVDTAQQKSAGLLMVHTVDVPMAGPPLEEEEDREDGDTKPDHSPSTVPEGVPKTEGALQISAAPEPAVAPGRTIVAAGSVEEAVILPFRIPPPPLASVDLDEDFLFTEPLPPPLEFANSFDIPDDRAASVPALADLVKQKKNDTSQPPTLNSSQPANSTDSKKPAGISNCLPSSFLPPPESFDAVTDSGIEEVDSRSSSDHHLETTSTISTVSSISTLSSEGGESMDTCTVYADGQAFVVDKPPVPPKPKMKPIVHKSNALYQDTLPEEDTDGFVIPPPAPPPPPGSAQAGVAKVIQPRTSKLWGDVPEVKSPILSGPKANVISELNSILQQMNRGKSVKPGEGLELPVGAKSANLAPRSPEVMSTVSGTRSTTVTFTVRPGTSQPITLQSRPPDYESRTSGPRRAPSPVVSPTELSKEILPTPPPPSATAASPSPTLSDVFSLPSQSPAGDLFGLNPAGRSRSPSPSILQQPISNKPFTTKPVHLWTKPDVADWLESLNLGEHKETFMDNEIDGSHLPNLQKEDLIDLGVTRVGHRMNIERALKQLLDR
–	binds	binds	Cytoplasmic Linker Associated Protein 2 (protein, UniProt Q8BRT1 1-1286) MRRLICKRICDYKSFDDEESVDGNRPSSAASAFKVPAPKTPGNPVSSARKPGSAGGPKVGGPSKEGGAGAVDEDDFIKAFTDVPSVQIYSSRELEETLNKIREILSDDKHDWDQRANALKKIRSLLVAGAAQYDCFFQHLRLLDGALKLSAKDLRSQVVREACITVAHLSTVLGNKFDHGAEAIVPTLFNLVPNSAKVMATSGCAAIRFIIRHTHVPRLIPLITSNCTSKSVPVRRRSFEFLDLLLQEWQTHSLERHAAVLVETIKKGIHDADAEARVEARKTYMGLRNHFPGEAETLYNSLEPSYQKSLQTYLKSSGSVASLPQSDRSSSSSQESLNRPFSSKWSTANPSTVAGRVSVGGSKANPLPGSLQRSRSDIDVNAAAGAKAHHAAGQAVRSGRLGAGALNPGSYASLEDTSDKMDGTASDDGRVRAKLSTPLVAVGNAKTDSRGRSRTKMVSQSQPGSRSGSPGRVLTTTALSTVSSGAQRVLVNSASAQKRSKIPRSQGCSREASPSRLSVARSSRIPRPSVSQGCSREASRESSRDTSPVRSFQPLGPGYGISQSSRLSSSVSAMRVLNTGSDVEEAVADALLLGDIRTKKKPARRRYESYGMHSDDDANSDASSACSERSYSSRNGSIPTYMRQTEDVAEVLNRCASSNWSERKEGLLGLQNLLKNQRTLSRIELKRLCEIFTRMFADPHGKVFSMFLETLVDFIQVHKDDLQDWLFVLLTQLLKKMGADLLGSVQAKVQKALDITRESFPNDLQFNILMRFTVDQTQTPSLKVKVAILKYIETLAKQMDPRDFTNSSETRLAVSRVITWTTEPKSSDVRKAAQSVLISLFELNTPEFTMLLGALPKTFQDGATKLLHNHLRNTGNGTQSSMGSPLTRPTPRSPANWSSPLTSPTNTSQNTLSPSAFDYDTENMNSEDIYSSLRGVTEAIQNFSFRSQEDMSEPVRRDPKKEDGDTICSGPGMSDPRAGGDAADGSQPALDNKASLLHSMPLHSSPRSRDYNPYNYSDSISPFNKSALKEAMFDDDADQFPDDLSLDHSDLVAELLKELSNHNERIEERKIALYELMKLTQEESFSVWDEHFKTILLLLLETLGDKEPTIRALALKVLKEILRHQPARFKNYAELTVMKTLEAHKDPHKEVVRSAEEAASVLATSISPEQCIKVLCPIIQTADYPINLAAIKMQTKVIERVSKETLNMLLPEIMPGLIQGYDNSESSVRKACVFCLVAVHAVIGDELKPHLSQLTGSKMKLLNLYIKRAQTGSAGADPTADVSGQS
binds	–	–	Solute carrier family 25 member 4 (protein, UniProt P48962 1-298) MGDQALSFLKDFLAGGIAAAVSKTAVAPIERVKLLLQVQHASKQISAEKQYKGIIDCVVRIPKEQGFLSFWRGNLANVIRYFPTQALNFAFKDKYKQIFLGGVDRHKQFWRYFAGNLASGGAAGATSLCFVYPLDFARTRLAADVGKGSSQREFNGLGDCLTKIFKSDGLKGLYQGFSVSVQGIIIYRAAYFGVYDTAKGMLPDPKNVHIIVSWMIAQSVTAVAGLVSYPFDTVRRRMMMQSGRKGADIMYTGTLDCWRKIAKDEGANAFFKGAWSNVLRGMGGAFVLVLYDEIKKYV
–	binds	binds	Protein phosphatase 1B (protein, UniProt P36993 1-390) MGAFLDKPKTEKHNAHGAGNGLRYGLSSMQGWRVEMEDAHTAVVGIPHGLDNWSFFAVYDGHAGSRVANYCSTHLLEHITTNEDFRAADKSGSALEPSVESVKTGIRTGFLKIDEYMRNFSDLRNGMDRSGSTAVGVMVSPTHMYFINCGDSRAVLCRNGQVCFSTQDHKPCNPVEKERIQNAGGSVMIQRVNGSLAVSRALGDYDYKCVDGKGPTEQLVSPEPEVYEIVRAEEDEFVVLACDGIWDVMSNEELCEFVKSRLEVSDDLENVCNWVVDTCLHKGSRDNMSVVLVCFSNAPKVSEEAVKRDSELDKHLESRVEEIMQKSGEEGMPDLAHVMRILSAENIPNLPPGGGLAGKRHVIEAVYSRLNPHKDNDGGAGDLEDSLVAL
–	binds	binds	SOGA Family Member 3 (protein, UniProt Q6NZL0 26-945) RMHPEGCSRKQQRAQSPARPRDNSLRQTAGATRSPLGVGPKLNSVRQQQLQQQQQQGNKITGRSTSGTGSRGLGGGAEKAVPSIPKGAVPGAVQPAPGAEGSPAAILASVSFRRSGQPEEAPREIESGPSKVGEPPPLGGVGGGGEGGGAGGGPGDREGGAPQPPPPRGWRGKGVRATQRGSSVAEGVSPSPPTAATSKTPGPGSRNSGSGSTGSGSGGGGSYWKEGCLQSELIQFHLKKERAAAAAAAAQMHTKNGGGGSRSSPVAGAPAICEPLVVPSSSPMAAAAEGPQQSAEGNGSGGAMQAAAPPSSQPHSQQLQEQEDMQEEMEKLREENETLKNEIDELRTEMDEMRDTFFEEDACQLQEMRHELERANKNCRILQYRLRKAERKRLRYAQTGEIDGELLRSLEQDLKVAKDVSVRLHHELENVEEKRTTTEDENEKLRQQLIEVEIAKQALQNELEKMKELSLKRRGSKDLPKSEKKAQQTPTEDDNEDLKCQLQFVKEEAALMRKKMAKIDKEKDRFEHELQKYRSFYGDLDSPLPKGEAGGPPSTREAELKLRLRLVEEEANILGRKIVELEVENRGLKAELDDLRGEDFNGSSNPLMREQSESLSELRQHLQLVEDETELLRRNVADLEEQNKRITAELNKYKYKSSGHDSSRHHDNAKTEALQEELKAARLQINELSGKVMQLQYENRVLMSNMQRYDLASHLGIRGSPRDSDAESDAGKKESDDDSRPPHRKREGPIGGESDSEEVRNIRSLTPTRSFYPTPGPWPKSFSDRQQMKDIRSEAERLGKTIDRLIADTSTIITEARIYVANGDLFGLMDEEDDGSRIREHELLYRINAQMKAFRKELQTFIDRLEVPKSADDRGAEEPISVSQMFQPIILLILILVLFSSLSYTTIFKLVFLFTLFFVL
